The chains are these.
T1: Ubiquitin Conjugating Enzyme E2O (UBE2O) (human (endogenous in HCCLM3, Hep-3B, Huh-7)) (UniProt Q9C0C9)
T1 sequence: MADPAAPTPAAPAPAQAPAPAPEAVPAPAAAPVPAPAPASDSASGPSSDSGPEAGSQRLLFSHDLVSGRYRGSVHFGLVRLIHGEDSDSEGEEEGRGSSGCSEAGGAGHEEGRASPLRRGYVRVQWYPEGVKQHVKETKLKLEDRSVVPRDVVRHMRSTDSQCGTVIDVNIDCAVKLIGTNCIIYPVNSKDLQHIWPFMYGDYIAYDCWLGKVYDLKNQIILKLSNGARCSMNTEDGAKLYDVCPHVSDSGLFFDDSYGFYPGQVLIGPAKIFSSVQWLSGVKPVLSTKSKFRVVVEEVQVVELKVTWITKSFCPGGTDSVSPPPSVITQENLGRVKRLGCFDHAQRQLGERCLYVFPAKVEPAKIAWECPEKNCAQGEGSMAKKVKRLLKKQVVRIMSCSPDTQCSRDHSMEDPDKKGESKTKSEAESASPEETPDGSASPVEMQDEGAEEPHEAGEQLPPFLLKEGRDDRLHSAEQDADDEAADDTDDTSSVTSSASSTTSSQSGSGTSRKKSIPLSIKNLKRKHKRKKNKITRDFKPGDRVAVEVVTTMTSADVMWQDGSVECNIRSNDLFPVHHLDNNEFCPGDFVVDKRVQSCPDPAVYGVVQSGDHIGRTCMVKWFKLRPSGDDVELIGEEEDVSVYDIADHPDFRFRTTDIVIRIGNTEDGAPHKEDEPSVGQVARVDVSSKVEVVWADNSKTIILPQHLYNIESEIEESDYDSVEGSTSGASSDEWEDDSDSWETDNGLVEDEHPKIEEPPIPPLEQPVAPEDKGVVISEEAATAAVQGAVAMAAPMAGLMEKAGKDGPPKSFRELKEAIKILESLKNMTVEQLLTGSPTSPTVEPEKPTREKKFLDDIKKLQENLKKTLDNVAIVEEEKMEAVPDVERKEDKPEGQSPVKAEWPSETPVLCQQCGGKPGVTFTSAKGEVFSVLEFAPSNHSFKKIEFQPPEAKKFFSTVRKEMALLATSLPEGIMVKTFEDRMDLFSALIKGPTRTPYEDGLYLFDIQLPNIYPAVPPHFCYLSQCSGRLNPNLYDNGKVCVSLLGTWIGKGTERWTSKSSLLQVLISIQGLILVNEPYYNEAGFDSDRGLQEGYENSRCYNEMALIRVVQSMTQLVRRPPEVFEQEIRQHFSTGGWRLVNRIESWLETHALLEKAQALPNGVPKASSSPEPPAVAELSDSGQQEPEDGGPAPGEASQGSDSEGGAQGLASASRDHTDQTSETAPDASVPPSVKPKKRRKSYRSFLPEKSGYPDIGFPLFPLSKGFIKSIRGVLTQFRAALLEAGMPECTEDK

Chains of the proteins cited; added tags and fusions are not shown. Residues count along the entry.
UniProt Q10589, residues 1-161: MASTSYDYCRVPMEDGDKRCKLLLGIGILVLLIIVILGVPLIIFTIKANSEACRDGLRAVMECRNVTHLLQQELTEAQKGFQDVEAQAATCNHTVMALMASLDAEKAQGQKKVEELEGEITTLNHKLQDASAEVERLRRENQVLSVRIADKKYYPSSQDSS
UniProt P19474: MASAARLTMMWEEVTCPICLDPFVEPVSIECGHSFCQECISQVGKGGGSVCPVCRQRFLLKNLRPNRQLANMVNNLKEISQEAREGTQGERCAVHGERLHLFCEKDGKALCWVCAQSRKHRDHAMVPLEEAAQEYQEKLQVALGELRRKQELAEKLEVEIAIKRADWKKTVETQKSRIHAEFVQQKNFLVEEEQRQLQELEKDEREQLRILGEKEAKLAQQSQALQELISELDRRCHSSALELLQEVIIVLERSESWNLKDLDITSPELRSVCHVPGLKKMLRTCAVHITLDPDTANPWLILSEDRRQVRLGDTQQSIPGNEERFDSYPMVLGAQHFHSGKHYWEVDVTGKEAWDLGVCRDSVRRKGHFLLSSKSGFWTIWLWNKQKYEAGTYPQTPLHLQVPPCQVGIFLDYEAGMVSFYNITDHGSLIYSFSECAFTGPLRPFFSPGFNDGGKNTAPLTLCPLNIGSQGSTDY

B1: interferon-induced protein with tetratricopeptide repeats 3 (IFIT3) (protein, UniProt O14879 1-490)
chain: MSEVTKNSLEKILPQLKCHFTWNLFKEDSVSRDLEDRVCNQIEFLNTEFKATMYNLLAYIKHLDGNNEAALECLRQAEELIQQEHADQAEIRSLVTWGNYAWVYYHLGRLSDAQIYVDKVKQTCKKFSNPYSIEYSELDCEEGWTQLKCGRNERAKVCFEKALEEKPNNPEFSSGLAIAMYHLDNHPEKQFSTDVLKQAIELSPDNQYVKVLLGLKLQKMNKEAEGEQFVEEALEKSPCQTDVLRSAAKFYRRKGDLDKAIELFQRVLESTPNNGYLYHQIGCCYKAKVRQMQNTGESEASGNKEMIEALKQYAMDYSNKALEKGLNPLNAYSDLAEFLETECYQTPFNKEVPDAEKQQSHQRYCNLQKYNGKSEDTAVQHGLEGLSISKKSTDKEEIKDQPQNVSENLLPQNAPNYWYLQGLIHKQNGDLLQAAKCYEKELGRLLRDAPSGIGSIFLSASELEDGSEEMGQGAVSSSPRELLSNSEQLN

No constants are given. Whether binding was seen depends on the method and setting. Binding seen in cells or lysates may run through a third protein. Here binding means that the protein was enriched with, or labelled near, the bait; the list need not be complete.

In the experiment the target is T1, Ubiquitin Conjugating Enzyme E2O (UBE2O) (human (endogenous in HCCLM3, Hep-3B, Huh-7)). The experiment in a line: affinity purification with mass spectrometry; immunoprecipitation in HCCLM3 cells with an anti-UBE2O antibody (anti-rabbit IgG as control), samples analysed by mass spectrometry.
As to BST2 (from UniProt Q10589 1-161), the binding result was “binds”.

For TRIM21 (from UniProt P19474 1-475), the binding entry was “binds”.

With B1, the binding result is on record as “binds”.

The values are drawn from publication PMC10740027.
